Test results: paper doi:10.1101/2022.01.24.477493
These are yes or no findings as the source states them, for the method shown. For part of these data: Binding seen in cells or lysates may run through a third protein. Some entries that bind do so weakly or less than the wild type. Blank lines part the entries; values can stand above or below the molecule they belong to.

Amino acid sequences for entries named in this document (tags omitted). Residues count along the entry.
UniProt Q9D5T0, whole entry: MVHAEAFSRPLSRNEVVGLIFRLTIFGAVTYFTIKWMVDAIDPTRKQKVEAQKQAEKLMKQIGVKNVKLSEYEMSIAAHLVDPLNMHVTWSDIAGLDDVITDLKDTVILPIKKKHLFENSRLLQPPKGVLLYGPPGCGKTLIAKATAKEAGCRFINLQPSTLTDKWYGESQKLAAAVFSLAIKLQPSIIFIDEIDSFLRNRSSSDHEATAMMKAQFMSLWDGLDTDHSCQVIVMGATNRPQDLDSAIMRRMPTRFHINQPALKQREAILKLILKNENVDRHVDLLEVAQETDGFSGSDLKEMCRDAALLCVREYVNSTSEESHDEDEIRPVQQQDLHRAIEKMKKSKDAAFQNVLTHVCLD
UniProt Q38HM4, whole entry: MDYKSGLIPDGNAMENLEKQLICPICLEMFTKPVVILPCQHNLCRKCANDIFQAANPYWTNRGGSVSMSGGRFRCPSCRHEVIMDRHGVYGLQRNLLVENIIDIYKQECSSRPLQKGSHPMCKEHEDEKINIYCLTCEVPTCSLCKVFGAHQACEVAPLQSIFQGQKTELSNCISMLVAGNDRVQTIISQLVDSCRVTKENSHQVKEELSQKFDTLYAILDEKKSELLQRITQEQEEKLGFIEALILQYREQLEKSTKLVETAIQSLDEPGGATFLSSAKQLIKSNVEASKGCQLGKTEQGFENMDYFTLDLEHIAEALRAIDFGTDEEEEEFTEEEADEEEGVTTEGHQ
UniProt O08529, 20-700: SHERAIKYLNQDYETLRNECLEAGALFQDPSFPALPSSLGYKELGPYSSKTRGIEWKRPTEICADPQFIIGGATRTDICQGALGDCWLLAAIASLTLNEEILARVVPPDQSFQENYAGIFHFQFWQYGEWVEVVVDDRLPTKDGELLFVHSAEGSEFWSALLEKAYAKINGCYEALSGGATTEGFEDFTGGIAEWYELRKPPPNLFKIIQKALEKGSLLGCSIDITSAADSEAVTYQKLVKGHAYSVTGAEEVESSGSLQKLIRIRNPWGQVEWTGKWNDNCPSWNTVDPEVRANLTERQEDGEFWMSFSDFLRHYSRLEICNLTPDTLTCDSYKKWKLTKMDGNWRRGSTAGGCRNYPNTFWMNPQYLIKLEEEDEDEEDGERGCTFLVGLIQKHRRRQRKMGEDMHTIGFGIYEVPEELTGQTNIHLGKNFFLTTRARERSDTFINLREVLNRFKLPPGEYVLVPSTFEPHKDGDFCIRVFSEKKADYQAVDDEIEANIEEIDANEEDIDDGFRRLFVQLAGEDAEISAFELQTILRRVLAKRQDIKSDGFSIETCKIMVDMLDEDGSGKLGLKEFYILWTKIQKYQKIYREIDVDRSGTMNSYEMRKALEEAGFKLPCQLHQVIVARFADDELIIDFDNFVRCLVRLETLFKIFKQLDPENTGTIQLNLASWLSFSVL
UniProt O35350, whole entry: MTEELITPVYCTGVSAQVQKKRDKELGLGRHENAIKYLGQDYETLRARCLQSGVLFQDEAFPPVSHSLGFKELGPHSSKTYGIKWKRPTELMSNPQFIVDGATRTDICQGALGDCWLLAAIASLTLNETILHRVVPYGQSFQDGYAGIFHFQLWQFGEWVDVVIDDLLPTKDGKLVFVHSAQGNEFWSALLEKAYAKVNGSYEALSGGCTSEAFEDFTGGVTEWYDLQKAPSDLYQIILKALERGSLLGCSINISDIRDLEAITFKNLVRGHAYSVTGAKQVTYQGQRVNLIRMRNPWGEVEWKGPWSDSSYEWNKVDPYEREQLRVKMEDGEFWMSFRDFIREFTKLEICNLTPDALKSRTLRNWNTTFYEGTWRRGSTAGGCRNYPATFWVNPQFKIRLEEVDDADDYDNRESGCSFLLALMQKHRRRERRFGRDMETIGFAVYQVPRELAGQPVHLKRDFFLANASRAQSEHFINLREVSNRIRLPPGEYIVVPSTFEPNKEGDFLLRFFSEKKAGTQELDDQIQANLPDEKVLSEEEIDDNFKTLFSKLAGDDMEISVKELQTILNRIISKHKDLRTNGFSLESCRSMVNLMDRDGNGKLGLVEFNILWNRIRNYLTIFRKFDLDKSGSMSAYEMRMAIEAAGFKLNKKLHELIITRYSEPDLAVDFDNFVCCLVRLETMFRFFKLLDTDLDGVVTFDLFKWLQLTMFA

Assays:
[1] = molecular target: ATAD1 (mouse (endogenous in mouse muscle)) (UniProt Q9D5T0); test: co-IP
[2] = molecular target: ATAD1 (mouse (endogenous in mouse muscle)) (UniProt Q9D5T0); test: SEC

binding [1]: no binding
Molecule: MURF1 (from UniProt Q38HM4 1-350) (enzyme)

binding [2]: binds
Molecule: calpain 2 (from UniProt O08529 20-700) (enzyme)

binding [1]: binds
binding [2]: binds
Molecule: calpain-1 (from UniProt O35350 1-713) (enzyme)

binding [1]: binds
B1: Phospholipase A-2-activating protein (PLAA) (protein, UniProt P27612 1-794)
chain: MASGASRYRLSCSLPGHELDVRGLVCCLYPPGAFVSVSRDRTTRLWAPDSPNRGFTEMHCMSGHSNFVSCVCIIPSSDIYPHGLIATGGNDHNICIFSLDSPMPLYILKGHKDTVCSLSSGKFGTLLSGSWDTTAKVWLNDKCMMTLQGHTAAVWAVKILPEQGLMLTGSADKTIKLWKAGRCERTFLGHEDCVRGLAILSETEFLSCANDASIRRWQITGECLEVYFGHTNYIYSISVFPNSKDFVTTAEDRSLRIWKHGECAQTIRLPAQSIWCCCVLENGDIVVGASDGIIRVFTESEERTASAEEIKAFERELSQATIDSKTGDLGDINAEQLPGREHLSEPGTREGQTRLIRDGERVEAYQWSVSDGRWIKIGDVVGSSGANQQTSGKVLYEGKEFDYVFSIDVNEGGPSYKLPYNVSDDPWLVAYNFLQKNDLNPMFLDQVAKFIIDNTKGQTLGLGNTSFSDPFTGGGRYVPGTSGPSNTVQTADPFTGAGRYMPGSAGMDTTMTGVDPFTGNSAYRSAASKTVNIYFPKKEALTFDQANPTQILGKLKELNGTAPEEKKLTEDDLVLLEKILSLICNNSSEKPTAQQLQILWKAINWPEDIVFPALDILRLSIKHPNVNENFCNEKGDQFSSHLINLLNPKGKPANQLLALRTFCNCFVSQAGQKLMMSQRESLMSHAIELKSGSNKNIHIALATLTLNYSVCFHKDHNIEGKAQCLSVISTILEVVQDLEATFRLLVALGTLISDDSNAIQLAKSLGVDSQIKKYVSVSEPAKVSECCRLVLHLL

binding [1]: binds
B2: UBXN4 (protein, UniProt Q8VCH8 1-506)
chain: MLWFQGAIPAAIASAKRSGAVFVVFVAGDDEQSIQMAASWEDEKVTQASSNNFVAIKIDTKSEACLQFSQIYPVVCVPSSFFIGDSGIPLEVIAGSVSADELVTRIHKVQQMHSSKGEASVTNDNQSESSVSTPSASFEPDVCENPESKNTELCETPATSDIKSDTATGGECTGHDSHSQEPHGCSNQRPAEDLTVRVERLTKKLEERREEKRKEEAQREIKKEIERRKTGKEMLDYKRKQEEELTKRMLEERSREKAEDRAARERIKQQIALDRAERAARFAKTKEAEAAKAAALLTKQAGTEVKRESTARDRSTIARIQFRLPDGSSFTNQFPSDAPLEEARQFAAQTVGNTYGNFSLATMFPRREFTREDYKRRLLDLELAPSASVVLLPAGRPATSIVHSSSGDIWTLLGTVLYPFLAIWRLISNFLFSNPPPAQTSARATSTEPSNSASSSKSEKREPVRKRMLEKRGEDFKKEGKIYRLRTQDDGEDENNTWNGNSTQQM
